For one molecule, binding results are on record in PMC7618248, “VEL-dependent polymerization maintains the chromatin association of Polycomb proteins for the switch to epigenetic silencing” (Molecular cell, 2025).

Amino acid sequences for entries named in this document (tags omitted). A change or cut given only in a name is not applied to a line headed by its entry.
UniProt Q9FIE3: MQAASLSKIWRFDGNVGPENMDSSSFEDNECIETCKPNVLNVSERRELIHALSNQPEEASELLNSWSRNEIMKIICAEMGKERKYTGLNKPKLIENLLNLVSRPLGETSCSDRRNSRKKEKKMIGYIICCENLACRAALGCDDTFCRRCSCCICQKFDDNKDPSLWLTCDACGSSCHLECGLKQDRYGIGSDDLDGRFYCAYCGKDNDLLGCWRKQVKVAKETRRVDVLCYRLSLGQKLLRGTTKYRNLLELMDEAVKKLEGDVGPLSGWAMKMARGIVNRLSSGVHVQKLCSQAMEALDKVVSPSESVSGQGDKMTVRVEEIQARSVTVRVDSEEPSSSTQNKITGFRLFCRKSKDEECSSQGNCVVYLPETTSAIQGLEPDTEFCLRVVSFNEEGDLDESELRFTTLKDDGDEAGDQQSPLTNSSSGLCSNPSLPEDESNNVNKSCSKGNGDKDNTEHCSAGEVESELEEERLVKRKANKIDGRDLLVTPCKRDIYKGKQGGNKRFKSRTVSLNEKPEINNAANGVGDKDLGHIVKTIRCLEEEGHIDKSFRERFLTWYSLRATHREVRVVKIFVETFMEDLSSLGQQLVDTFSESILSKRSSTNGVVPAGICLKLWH

No constants are given. Whether binding was seen depends on the method and setting. In cells and extracts the contact can be indirect.

The assay addresses VIN3-GFP R556D/I575D (Arabidopsis thaliana) (UniProt Q9FIE3). The experiment in a line: co-IP; GFP-Trap immunoprecipitates from extracts of vernalized plants with VIN3-GFP transgenes, immunoblot probed with anti-FIE; IP buffer 50 mM Tris-HCl pH 7.5, 150 mM NaCl, 0.5% NP-40, 1% Triton-X; non-transgenic Col-FRI as negative control.

B1: FIE (protein, UniProt Q9LT47 1-369)
chain: MSKITLGNESIVGSLTPSNKKSYKVTNRIQEGKKPLYAVVFNFLDARFFDVFVTAGGNRITLYNCLGDGAISALQSYADEDKEESFYTVSWACGVNGNPYVAAGGVKGIIRVIDVNSETIHKSLVGHGDSVNEIRTQPLKPQLVITASKDESVRLWNVETGICILIFAGAGGHRYEVLSVDFHPSDIYRFASCGMDTTIKIWSMKEFWTYVEKSFTWTDDPSKFPTKFVQFPVFTASIHTNYVDCNRWFGDFILSKSVDNEILLWEPQLKENSPGEGASDVLLRYPVPMCDIWFIKFSCDLHLSSVAIGNQEGKVYVWDLKSCPPVLITKLSHNQSKSVIRQTAMSVDGSTILACCEDGTIWRWDVITK
Take B1: the binding result was “no binding”.
